Paper PMC4105440
No constants are given. Whether binding was seen depends on the method and setting. In cells and extracts the contact can be indirect. Some entries that bind do so weakly or less than the wild type.

By UniProt entry, the sequences of proteins in these tests, tags left out.
UniProt P09874: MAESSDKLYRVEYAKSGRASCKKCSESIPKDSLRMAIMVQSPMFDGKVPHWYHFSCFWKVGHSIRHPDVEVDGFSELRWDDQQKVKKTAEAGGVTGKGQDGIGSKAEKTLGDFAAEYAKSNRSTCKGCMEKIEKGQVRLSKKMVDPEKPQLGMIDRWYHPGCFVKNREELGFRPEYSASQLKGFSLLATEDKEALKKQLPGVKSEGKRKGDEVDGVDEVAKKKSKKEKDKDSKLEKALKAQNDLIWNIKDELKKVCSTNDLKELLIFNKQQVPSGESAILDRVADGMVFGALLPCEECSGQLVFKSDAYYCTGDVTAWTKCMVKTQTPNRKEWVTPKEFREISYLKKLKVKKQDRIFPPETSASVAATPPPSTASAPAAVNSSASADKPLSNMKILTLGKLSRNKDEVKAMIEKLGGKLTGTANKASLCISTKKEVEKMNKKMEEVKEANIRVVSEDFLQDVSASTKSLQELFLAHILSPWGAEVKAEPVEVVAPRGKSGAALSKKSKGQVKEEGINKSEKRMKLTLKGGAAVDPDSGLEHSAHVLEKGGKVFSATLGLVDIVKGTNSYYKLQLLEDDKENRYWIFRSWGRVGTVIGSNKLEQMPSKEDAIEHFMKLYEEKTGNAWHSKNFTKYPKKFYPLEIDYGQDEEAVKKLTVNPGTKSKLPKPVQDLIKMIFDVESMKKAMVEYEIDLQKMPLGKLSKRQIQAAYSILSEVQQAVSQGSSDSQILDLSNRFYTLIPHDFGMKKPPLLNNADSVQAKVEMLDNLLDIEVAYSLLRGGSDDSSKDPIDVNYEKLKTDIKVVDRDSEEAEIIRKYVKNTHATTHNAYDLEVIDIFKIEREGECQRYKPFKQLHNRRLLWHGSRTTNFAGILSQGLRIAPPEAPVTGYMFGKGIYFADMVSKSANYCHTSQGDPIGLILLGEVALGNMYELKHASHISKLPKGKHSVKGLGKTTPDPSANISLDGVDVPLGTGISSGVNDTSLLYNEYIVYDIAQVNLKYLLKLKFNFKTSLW
UniProt P08047: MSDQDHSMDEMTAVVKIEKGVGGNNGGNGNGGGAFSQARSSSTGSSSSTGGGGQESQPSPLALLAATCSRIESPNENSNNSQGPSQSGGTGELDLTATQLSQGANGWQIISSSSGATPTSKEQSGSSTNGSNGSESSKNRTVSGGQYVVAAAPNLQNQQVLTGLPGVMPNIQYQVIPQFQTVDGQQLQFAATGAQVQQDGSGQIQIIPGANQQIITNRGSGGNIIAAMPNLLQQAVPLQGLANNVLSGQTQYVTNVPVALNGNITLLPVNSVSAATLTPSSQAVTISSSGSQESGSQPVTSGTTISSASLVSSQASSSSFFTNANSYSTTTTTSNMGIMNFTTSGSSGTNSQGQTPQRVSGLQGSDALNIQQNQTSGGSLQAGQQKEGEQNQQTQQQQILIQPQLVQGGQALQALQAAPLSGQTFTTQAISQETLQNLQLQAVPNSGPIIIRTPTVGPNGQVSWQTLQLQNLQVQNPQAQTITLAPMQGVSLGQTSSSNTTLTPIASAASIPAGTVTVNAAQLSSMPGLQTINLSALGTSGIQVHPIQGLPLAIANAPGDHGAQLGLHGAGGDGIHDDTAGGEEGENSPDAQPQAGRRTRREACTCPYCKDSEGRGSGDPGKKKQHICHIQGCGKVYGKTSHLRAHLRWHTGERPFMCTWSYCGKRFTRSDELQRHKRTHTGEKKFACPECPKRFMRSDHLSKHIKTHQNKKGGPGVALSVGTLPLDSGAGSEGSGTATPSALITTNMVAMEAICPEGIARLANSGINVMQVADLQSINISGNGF

Biological target: Poly(ADP-ribose)polymerase-1 (human (endogenous in FB1329 fibroblasts)) (UniProt P09874)
Test: co-IP; unpublished observation; co-immunoprecipitation from FB1329 fibroblast extracts of quiescent, serum-reactivated or PARP-inhibited cells; which protein was precipitated is not told

- binding: binds
Substance: SP1 (from UniProt P08047 1-785)
